This is an account of results in article PMC12040169 (PLOS Biology, 2025).

The other results are listed elsewhere or left out.

In the assay the test system is T1, CTL2-GFP (C. trachomatis L2/434/Bu, GFP-expressing).
T1 construct: L2/434/Bu, GFP-expressing
Also on record: species or system HeLa; Intracellular C. trachomatis growth in HeLa cells, bulk GFP fluorescence relative to DMSO. Conditions: bulk GFP, single well; 28.5 h, 10 µM; inhibitor.
Consider `CCN1CCN(c2cc(C)nc3c(-c4ccccc4)cnn23)CC1` [CBK287793], for which the “% of control remaining” value turned out to be 108.181%.

As to `COc1ccc(-c2cnc3[nH]c(=O)n(C4CC4)c3n2)cc1` [CBK064907], the “% of control remaining” value came out at 143.852%.

`Cc1n[nH]c(C)c1CNC(=O)c1cccc2c(C)c(C)[nH]c12` [CBK283068]: the “% of control remaining” value came to 133.692%.

`O=C(O)CCSc1nc2ccccc2n1-c1ccccc1` [CBK264215]: the “% of control remaining” value is 126.574%.

In the case of `Cc1nc(N2CCOCC2)[nH]c(=O)c1CCC(=O)Nc1ccc(F)cc1` [CBK304990], the “% of control remaining” value is on record as 103.628%.

On to `COc1ccc(CCC(=O)N2CCC(N(C)Cc3ccc(-c4ccc(S(C)(=O)=O)cc4)nc3)CC2)cc1Cl` [CBK164102T], for which the “% of control remaining” value is recorded as 92.9512%.

As for `CC(C)[C@H](CO)n1c(=O)[nH]c2ncc(-c3cccc(CO)c3)nc21` [CBK065001], the “% of control remaining” value is 146.229%.

As to `COc1ccc(-c2ccc3ccc(NC(=O)C(C)C)nc3n2)cc1C` [CBK073665], the “% of control remaining” value came out at 121.207%.

With `CCCCC(=O)NC(c1ccccc1OC)c1cc(Cl)c2cccnc2c1O` (stereo not drawn) [CBK110947], the “% of control remaining” value came out at 117.584%.

As for `COCCN1CC(CNC(=O)c2ccc(N3CCCC3)c(Cl)c2)CC1=O` (stereo not drawn) [CBK307680], the “% of control remaining” value is on record as 114.233%.

As for `Brc1cncc2c1ccn2CCN1CCOCC1` [CBK083479], the “% of control remaining” value came out at 137.974%.

Regarding `NC(=O)CN1CCC(Oc2cncc(OCc3cccnc3)n2)C1` (stereo not drawn) [CBK084459], the “% of control remaining” value turned out to be 108.77%.

In the case of `O=C(O)CSc1nc2ccc([N+](=O)[O-])cc2[nH]1` [CBK265192], the “% of control remaining” value is reported as 129.816%.

Take `CC(=O)N1CCN(C(C(=O)O)c2cn(Cc3ccccc3)c3ccc(C(=O)O)cc23)CC1` (stereo not drawn) [CBK286648]: the “% of control remaining” value was determined as 117.74%.

Consider `CC1CCN(CC(C)(C)n2cncc2-c2cnn(C)c2)CC1` [CBK281738], for which the “% of control remaining” value is recorded as 93.5267%.

On to `COc1ccc(C(=O)N2C[C@@H](C)O[C@@H](C)C2)c(OC)n1` [CBK200231], for which the “% of control remaining” value is reported as 150.483%.

Turning to `O=c1c(Cc2ccccc2)c(O)c2ccccc2n1Cc1ccccc1` [CBK219368], the “% of control remaining” value is given as 156.996%.

On to `Cc1nn(C)c(C)c1CNC(=O)N1CCN(CC(F)F)CC1` [CBK304249], for which the “% of control remaining” value is 90.6336%.

In the case of `Cc1cc(C)n2nc(C(=O)N3CCC(C)CC3c3ccco3)nc2n1` (stereo not drawn) [CBK305196], the “% of control remaining” value came to 142.108%.

With `COc1ccnc(N2CCN(C(=O)c3c4c(nn3C)CCCC4)CC2)n1` [CBK304609], the “% of control remaining” value was determined as 77.7198%.

Take `CS(=O)(=O)Nc1ccccc1C(=O)NCCCN1CCOCC1` [CBK269745]: the “% of control remaining” value was determined as 98.9699%.

As to `CCC(C)c1csc(C2CN3CCCC3CO2)n1` (stereo not drawn) [CBK304805], the “% of control remaining” value came to 110.896%.

`Cc1noc(C)c1CC(=O)NC(C)c1cc2cc(Cl)ccc2o1` (stereo not drawn) [CBK281445]: the “% of control remaining” value worked out at 122.822%.

For the compound `COc1cc(Nc2nc(-c3cccc(C(=O)NCCN(C)C)c3)cn3ccnc23)cc(OC)c1OC` [CBK066250], the “% of control remaining” value is 143.338%.

As for `COc1ccc(-n2nc([N+](=O)[O-])c(NCc3ccccn3)[n+]2[O-])cc1` [CBK268430], the “% of control remaining” value is 108.631%.

In the case of `NC(=O)c1cccc(CNC2CCCN(c3cccnn3)C2)c1` (stereo not drawn) [CBK305115], the “% of control remaining” value is listed as 72.1761%.

For the compound `Cc1cc2ncc3c(n2n1)CC1CCC3N1C(=O)CCc1ccco1` (stereo not drawn) [CBK284380], the “% of control remaining” value was determined as 117.785%.

`COCCn1c(Cc2ccccc2)nnc1SCc1ccc2ccccc2c1` [CBK265985]: the “% of control remaining” value is listed as 169.941%.

`Clc1ccc(OCc2ccccc2)c(CNCc2ccccn2)c1` [CBK269850C]: the “% of control remaining” value turned out to be 90.2498%.

For the compound `O=C(Nc1ccc(S(=O)(=O)Nc2ncccn2)cc1)c1ccc2c(c1)OCCO2` [CBK268132], the “% of control remaining” value is 36.9693%.

Turning to `CSc1cc(CC(C)(C)C)c2cccc(F)c2n1` [CBK018791], the “% of control remaining” value amounted to 122.453%.

In the case of `O=C1N=C(NC2CCCCCC2)SC1CCNC(=O)N1CCOCC1` (stereo not drawn) [CBK067687], the “% of control remaining” value is recorded as 89.4467%.

With `O=C(Nc1cnccn1)c1ccc(Cl)cc1Cl` [CBK056922], the “% of control remaining” value worked out at 100.032%.

On to `CCOC(=O)c1sc(-c2c(Cl)cc(C(F)(F)F)cc2Cl)nc1O` [CBK078547], for which the “% of control remaining” value turned out to be 99.1695%.

Consider `O=C1NCC2(CCCN(C(=O)c3cccs3)C2)Oc2ccccc21` (stereo not drawn) [CBK284900], for which the “% of control remaining” value worked out at 93.5128%.

For the compound `Cn1c(N2CC[C@H](O)C2)nc2cc(C(=O)NCCc3cscn3)ccc21` [CBK306824], the “% of control remaining” value was 117.475%.

As to `Cc1cnc(CNC(=O)N2CCN(C3CCN(C)CC3)CC2)cn1` [CBK155886], the “% of control remaining” value was 175.419%.

For the compound `O=C(O)CN1C(=O)/C(=C\c2ccc(Oc3ccc(C(F)(F)F)cc3[N+](=O)[O-])cc2)SC1=S` [CBK264809], the “% of control remaining” value came out at 128.078%.

Consider `C=CCN(CC=C)Cc1c(C)nc2ccc(CC)cc2c1O` [CBK264998], for which the “% of control remaining” value was determined as 131.292%.

For the compound `CS(=O)(=O)c1ccc2ncnc(NCC(CO)Cc3ccccn3)c2c1` (stereo not drawn) [CBK306493], the “% of control remaining” value amounted to 99.5911%.

As for `O=C(CN1CCC2(CC1)CN(C(=O)CO)c1ccccc12)c1ccsc1` [CBK144605T], the “% of control remaining” value came to 87.2352%.

On to `O=C(COc1cccc(Br)c1)Nc1nnc[nH]1` [CBK264063], for which the “% of control remaining” value turned out to be 126.106%.

`CN1CCN([C@H]2[C@@H]3OC[C@@H](O3)[C@@H](NCc3ccc(CO)o3)[C@@H]2O)CC1` [CBK288823]: the “% of control remaining” value is 102.188%.

In the case of `N#Cc1sc(-c2ccc(F)cc2)cc1NC(=O)c1cccc([N+](=O)[O-])c1` [CBK066845], the “% of control remaining” value is 91.4713%.

For `COc1ccc(-c2cncc(NCC3CCOCC3)n2)cc1` [CBK037285], the “% of control remaining” value amounted to 79.7676%.

For `O=C(NCCCn1ccnc1)c1ncoc1-c1ccccc1F` [CBK283917], the “% of control remaining” value was 124.028%.

For `COc1cc(OC)nc(CN2CCOC3(CCN(C(=O)c4ccc5ccccc5c4)CC3)C2)n1` [CBK161121A], the “% of control remaining” value amounted to 112.889%.

On to `COc1ccc(CN(CCN2CCOCC2)C(=O)Nc2cccnc2)cc1OC` [CBK159379], for which the “% of control remaining” value is 146.295%.

On to `COCCN(Cc1ccc(OC)cc1)c1c(C)nc2ccc(C(=O)Nc3ccc(NC(C)=O)cc3)cn12` [CBK146111], for which the “% of control remaining” value stood at 104.096%.

Regarding `Cc1ccn2cc(-c3ccc4c(c3)CCN4S(C)(=O)=O)nc2c1` [CBK285221], the “% of control remaining” value came out at 124.802%.

As for `CN(c1ccc(C(=O)Nc2ccc(S(=O)(=O)N3CCOCC3)cc2)cc1)S(=O)(=O)c1ccccc1` [CBK264129], the “% of control remaining” value was 89.2099%.

Take `Cc1cc(-c2ccc(=O)n(CCNC(=O)C3CC3)n2)c(C)o1` [CBK284521]: the “% of control remaining” value is recorded as 106.724%.

Take `COc1cccc(CNC(=O)Cn2nnc(-c3ccc(CN4CCC(C)CC4)cc3)n2)c1OC` [CBK144161C]: the “% of control remaining” value was 108.092%.

Turning to `CCOC(=O)N1CCC(n2c(=O)[nH]c3ccccc32)CC1` [CBK149867], the “% of control remaining” value was 131.176%.

For `Cc1cc(NCc2ccc(C(C)C)cc2)c2ccccc2n1` [CBK122786], the “% of control remaining” value came to 114.474%.

Turning to `CC(=O)Nc1ccc(NC(=O)NCC2CCCO2)c(C(F)(F)F)c1` (stereo not drawn) [CBK304150], the “% of control remaining” value amounted to 106.083%.

As for `CCc1c(SCC(=O)O)nc2ccccc2c1C` [CBK286928], the “% of control remaining” value was 132.392%.

For `O=C(Nc1ccccc1-c1ccccc1)C1CN(S(=O)(=O)c2ccccc2)CCN1S(=O)(=O)c1ccccc1` (stereo not drawn) [CBK265902], the “% of control remaining” value worked out at 128.157%.

`O=C(Cc1ccc2c(c1)CCC2)N1CCCCC1CN1CCOCC1` (stereo not drawn) [CBK282704]: the “% of control remaining” value is reported as 144.838%.

`N#CCCN(C(=O)Nc1ccc2[nH]ccc2c1)C1CCCCC1` [CBK156362]: the “% of control remaining” value came to 102.994%.

On to `CC(=O)Nc1ccc(S(=O)(=O)N2CCN(S(=O)(=O)c3ccccc3)CC2)cc1` [CBK264163], for which the “% of control remaining” value came out at 100%.

In the case of `O=C1CC2(CCNCC2)Oc2c1ccc1ccccc21` [CBK282714], the “% of control remaining” value was 114.295%.

Turning to `CCc1nc2ccc(C(=O)NCCN(C)C)cn2c1N(CC)CC(=O)N(C)C` [CBK146762], the “% of control remaining” value is given as 128.19%.

For the compound `O=[N+]([O-])c1ccc(NC(=S)NCCCn2ccnc2)cc1` [CBK264915], the “% of control remaining” value worked out at 117.415%.

With `Cc1ccc(-c2nn(CCC#N)cc2C(=O)N2CCOCC2)cc1C` [CBK305940], the “% of control remaining” value is 115.377%.

For `O=C(CCc1ccc(-c2ccc(F)cc2)o1)Nc1ccc(C(=O)O)cc1` [CBK300502], the “% of control remaining” value is recorded as 119.316%.

Regarding `Cc1cccn2c(=O)c(/C=C3\SC(=S)N(CC4CCCO4)C3=O)c(NCCCn3ccnc3)nc12` (stereo not drawn) [CBK263825], the “% of control remaining” value is listed as 93.1878%.

`O=C(O)CCn1c2ccccc2c2cc(I)ccc21` [CBK262578]: the “% of control remaining” value turned out to be 100%.

Regarding `CC(=O)N1CCC2(CCCC[C@H]3CNCC[C@@H]3NC(=O)CNC2=O)CC1` [CBK292167], the “% of control remaining” value is given as 113.495%.

Consider `O=C(O)c1ccc(NC(=O)c2cnccn2)cc1` [CBK268110], for which the “% of control remaining” value was found to be 140.289%.

In the case of `Cc1cccc(-c2ccc(CC3(C(=O)NC(C)C)CCN(C(=O)C(C)C)CC3)cc2)c1` [CBK285756], the “% of control remaining” value was 115.509%.

`COc1ccc(C2CC(c3ccc4ccccc4c3)=NN2C(=O)COc2ccccc2C(=O)O)cc1` (stereo not drawn) [CBK297503]: the “% of control remaining” value is on record as 148.101%.

As to `Cc1ccc(S(=O)(=O)NC(C)(C)C)cc1C(=O)N(C)Cc1cnn(C)c1` [CBK305433], the “% of control remaining” value is on record as 108.586%.

With `Cc1cc(C)n(C(C)C(=O)N2CCC(Nc3cccnc3)CC2)n1` (stereo not drawn) [CBK305917], the “% of control remaining” value was found to be 80.4279%.

Turning to `Cc1ccc(-c2noc(CN3CCN(C(c4ccccc4)c4ccccc4)CC3)n2)cc1` [CBK266425], the “% of control remaining” value came out at 162.027%.

With `O=C(Cn1cccn1)NCC(c1ccccc1Cl)N1CCOCC1` (stereo not drawn) [CBK305593], the “% of control remaining” value is listed as 133.959%.

With `CS(=O)(=O)Nc1ccc(N2CCNCC2)c2ccccc12` [CBK059355C], the “% of control remaining” value was 50.3953%.

In the case of `Cc1ccc(C(=O)CSc2nc(O)c3nc[nH]c3n2)cc1` [CBK300520], the “% of control remaining” value is reported as 104.953%.
